# Data as given in paper PMC7769281, “The plasticity of the pyruvate dehydrogenase complex confers a labile structure that is associated with its catalytic activity” (PLoS ONE, 2020).
# No constants are given. Whether binding was seen depends on the method and setting. In cells and extracts the contact can be indirect. These calls come from enrichment with a bait or labelling near it, and not all partners need be listed. Sequences can lack the tags named with a protein.
# T1: yeast PDC E3, Lpd1-5xFLAG (S. cerevisiae), P09624
# T1 chain: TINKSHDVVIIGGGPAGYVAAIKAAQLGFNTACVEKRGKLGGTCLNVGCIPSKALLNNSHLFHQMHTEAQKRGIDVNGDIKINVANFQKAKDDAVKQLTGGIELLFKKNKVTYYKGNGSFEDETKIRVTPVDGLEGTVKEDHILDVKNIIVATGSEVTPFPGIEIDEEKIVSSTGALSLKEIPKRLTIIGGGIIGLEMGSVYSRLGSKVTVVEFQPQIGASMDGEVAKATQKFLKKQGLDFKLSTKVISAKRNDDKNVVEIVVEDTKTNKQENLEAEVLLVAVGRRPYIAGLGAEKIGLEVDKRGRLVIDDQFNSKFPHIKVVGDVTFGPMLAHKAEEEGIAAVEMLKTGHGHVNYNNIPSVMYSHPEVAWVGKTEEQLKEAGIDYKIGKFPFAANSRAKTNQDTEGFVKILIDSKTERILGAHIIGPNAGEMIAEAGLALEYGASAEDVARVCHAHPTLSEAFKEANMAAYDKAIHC
# Target: T1, yeast PDC E3, Lpd1-5xFLAG (S. …)
# Test: affinity purification with mass spectrometry; FLAG affinity purification (anti-FLAG M2 agarose, 4°C, 3xFLAG peptide elution) of E1pβ-5xFLAG or E3-5xFLAG from yeast cell extracts; MudPIT
# Conditions: remark: other sources report otherwise
binder,measurement,value
"yeast PDC E1p α subunit (untagged, endogenous), P16387 34-420 (protein) ATLKTTDKKAPEDIEGSDTVQIELPESSFESYMLEPPDLSYETSKATLLQMYKDMVIIRRMEMACDALYKAKKIRGFCHLSVGQEAIAVGIENAITKLDSIITSYRCHGFTFMRGASVKAVLAELMGRRAGVSYGKGGSMHLYAPGFYGGNGIVGAQVPLGAGLAFAHQYKNEDACSFTLYGDGASNQGQVFESFNMAKLWNLPVVFCCENNKYGMGTAASRSSAMTEYFKRGQYIPGLKVNGMDILAVYQASKFAKDWCLSGKGPLVLEYETYRYGGHSMSDPGTTYRTRDEIQHMRSKNDPIAGLKMHLIDLGIATEAEVKAYDKSARKYVDEQVELADAAPPPEAKLSILFEDVYVKGTETPTLRGRIPEDTWDFKKQGFASRD",binding,binds
